{"source": "patent US20070059242A1", "about": "“METHODS TO IDENTIFY THERAPEUTIC AGENTS” (priority 2005, published 2007)", "test": "Analysis of patient plasma samples for aldehydes 4a and 5a", "set-up": "species or system human", "details": "cohort A, six of eight endarterectomy patients; endogenous level", "data": [{"compound": "CC(C)CCC[C@@H](C)[C@H]1CCC2C3C(CC[C@@]21C)[C@@]1(C)CC[C@H](O)C[C@@]1(O)[C@@H]3C=O", "note": "(stereo partly drawn) [5a, 3β-Hydroxy-5β-hydroxy-B-norcholestane-6β-carboxaldehyde]", "values": [{"measurement": "amount detected in plasma", "result": "70 to 1690", "unit": "nM"}]}]}
